# Test results reported in PMC11481484.
# These are yes or no findings as the source states them, for the method shown. Binding seen in cells or lysates may run through a third protein. Binding calls can cover weak binding; strength is not graded here.
# Biological target: T1, Rubella virus E1 envelope glycoprotein (Rubella virus (RuV)) (UniProt P08563)
# T1 sequence (chain, N-linked carbohydrates (sites not printed)): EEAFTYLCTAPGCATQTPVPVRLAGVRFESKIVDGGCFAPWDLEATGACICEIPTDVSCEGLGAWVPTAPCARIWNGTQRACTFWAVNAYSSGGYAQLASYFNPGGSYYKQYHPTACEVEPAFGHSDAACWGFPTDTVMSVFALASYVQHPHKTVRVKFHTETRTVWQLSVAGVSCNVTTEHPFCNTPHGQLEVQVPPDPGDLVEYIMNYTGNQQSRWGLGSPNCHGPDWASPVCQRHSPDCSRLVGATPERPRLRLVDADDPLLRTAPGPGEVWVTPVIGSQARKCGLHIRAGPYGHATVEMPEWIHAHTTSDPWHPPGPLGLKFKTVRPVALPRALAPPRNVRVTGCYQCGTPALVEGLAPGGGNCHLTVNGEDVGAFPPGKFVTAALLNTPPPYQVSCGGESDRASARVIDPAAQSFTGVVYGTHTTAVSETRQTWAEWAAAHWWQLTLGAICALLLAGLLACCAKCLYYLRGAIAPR
# Test: cross-linking + co-IP; BHK-21 cells 42 h post-electroporation with WT or mutant viral RNA cross-linked with 1 mM DSP in PBS, 10 min, room temperature, quenched with 125 mM glycine; lysis buffer 2 (10 mM sodium phosphate pH 7.4, 50 mM NaCl, 1% Triton X-100); IP with mAb E1-20 or control mAb; cross-link reversed by DTT; western blot with RuV pAb
substance,measurement,value
"Rubella virus E2 envelope glycoprotein, pseudorevertant Y281V",binding,binds
